The values below come from the supplement of paper PMC4604168 (melanoma cell lines).

This is one part of the list. Repeats are few or missing, and single values can be far off.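 The apoptosis fraction was the count of cleaved-PARP antibody-stained nuclei relative to all DNA-stained nuclei, imaged in 1,536-well plates. Screening doses were set so most cells survived, and baseline and induced cleaved-PARP levels vary greatly across cell lines.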

The experiment concerns SkMel2. The experiment can be described thus: cleaved PARP positive nuclei fraction relative to DMSO control; melanoma cells; higher = more apoptosis. As to conditions: library dose: low library concentration; 72 h.
For `CC1(C)CCC(c2ccc(Cl)cc2)=C(CN2CCN(c3ccc(C(=O)NS(=O)(=O)c4ccc(N[C@H](CCN5CCOCC5)CSc5ccccc5)c(S(=O)(=O)C(F)(F)F)c4)cc3)CC2)C1` + Cc1cc([N+](=O)[O-])ccc1NS(=O)(=O)c1cc(Cl)ccc1Cl [FH535] (first compound 0.4 µM, partner dose 1 µM), the “cleaved PARP positive nuclei fraction” value was 103%. `NC1(c2ccc(-c3nc4ccn5c(=O)[nH]nc5c4cc3-c3ccccc3)cc2)CCC1` + CC(C)(C)c1cnc(CSc2cnc(NC(=O)C3CCNCC3)s2)o1 [SNS-032] (first compound 0.4 µM, partner dose 0.01 µM): the “cleaved PARP positive nuclei fraction” value came to 106%. The figure for `CN(c1ncccc1CNc1nc(Nc2ccc3c(c2)CC(=O)N3)ncc1C(F)(F)F)S(C)(=O)=O` + O=C(O)C(=O)Nc1sc2c(c1C(=O)O)CCNC2 [TCS401] (first compound 0.08 µM, partner dose 1.66667 µM) is 140%; for `NC1(c2ccc(-c3nc4ccn5c(=O)[nH]nc5c4cc3-c3ccccc3)cc2)CCC1` + COc1cc2c(Oc3ccc4[nH]c(C)cc4c3F)ncnc2cc1OCCCN1CCCC1 [cediranib] (first compound 0.4 µM, partner dose 0.4 µM) it is 94.8%. `CC1(C)CCC(c2ccc(Cl)cc2)=C(CN2CCN(c3ccc(C(=O)NS(=O)(=O)c4ccc(N[C@H](CCN5CCOCC5)CSc5ccccc5)c(S(=O)(=O)C(F)(F)F)c4)cc3)CC2)C1` + C=CCn1c(=O)c2cnc(Nc3ccc(N4CCN(C)CC4)cc3)nc2n1-c1cccc(C(C)(C)O)n1 [MK1775] (first compound 0.4 µM, partner dose 0.02 µM): the “cleaved PARP positive nuclei fraction” value stood at 196%.

With `NC1(c2ccc(-c3nc4ccn5c(=O)[nH]nc5c4cc3-c3ccccc3)cc2)CCC1` + COc1ccc(-c2ccc3c(N4CCOCC4)nc(N4C[C@@H](C)O[C@@H](C)C4)nc3n2)cc1CO [KU0063794] (first compound 0.4 µM, partner dose 0.02 µM), the “cleaved PARP positive nuclei fraction” value stood at 94.5%.

For the compound `CS(=O)(=O)c1ccc(C(=O)Nc2ccc(Cl)c(-c3ccccn3)c2)c(Cl)c1` [vismodegib] + COC(=O)c1sccc1S(=O)(=O)Nc1ccc(Nc2ccccc2)cc1OC [GSK0660] (first compound 1 µM, partner dose 1 µM), the “cleaved PARP positive nuclei fraction” value stood at 110%. Consider `NC(=O)c1ccc(N(C(N)=O)c2c(F)cccc2F)nc1-c1ccc(F)cc1F` + O=C(CCCCCCC(=O)Nc1ccccc1)NO [vorinostat] (first compound 0.4 µM, partner dose 0.08 µM), for which the “cleaved PARP positive nuclei fraction” value came to 95.3%.

As for `Cn1sc(=O)n(Cc2ccccc2)c1=O` + O=c1cc(-c2cccc3c2Sc2ccccc2S3)oc(N2CCOCC2)c1 [KU55933] (first compound 0.4 µM, partner dose 1 µM), the “cleaved PARP positive nuclei fraction” value stood at 249%.

As to `CCCCCCCCc1ccc(CCC(N)(CO)CO)cc1` [fingolimod] + COc1cc2ncnc(Nc3ccc(Oc4ccccc4)cc3)c2cc1OC [SrcI1] (first compound 2 µM, partner dose 2 µM), the “cleaved PARP positive nuclei fraction” value was 77.3%.

For the compound `NC1(c2ccc(-c3nc4ccn5c(=O)[nH]nc5c4cc3-c3ccccc3)cc2)CCC1` + Cc1ccc(NC(=O)c2cccc(N(C)C)c2)cc1NC(=O)c1ccc(O)cc1 [ZM336372] (first compound 0.4 µM, partner dose 2 µM), the “cleaved PARP positive nuclei fraction” value stood at 84.4%. For the compound `COc1ccc(C2=N[C@@H](c3ccc(Cl)cc3)[C@@H](c3ccc(Cl)cc3)N2C(=O)N2CCNC(=O)C2)c(OC(C)C)c1` [Nutlin-3] + C[C@@H]1CCN(C(=O)CC#N)C[C@@H]1N(C)c1ncnc2[nH]ccc12 [CP690550] (first compound 0.1 µM, partner dose 1 µM), the “cleaved PARP positive nuclei fraction” value is 53.4%. `CS(=O)(=O)c1ccc(C(=O)Nc2ccc(Cl)c(-c3ccccn3)c2)c(Cl)c1` [vismodegib] + CC(C)(C)c1cnc(CSc2cnc(NC(=O)C3CCNCC3)s2)o1 [SNS-032] (first compound 1 µM, partner dose 0.01 µM): the “cleaved PARP positive nuclei fraction” value came out at 95.4%.

On to `NC1(c2ccc(-c3nc4ccn5c(=O)[nH]nc5c4cc3-c3ccccc3)cc2)CCC1` + Cn1cc(/C=C2\C(=O)Nc3cccnc32)c2ccccc21 [GW441756] (first compound 0.4 µM, partner dose 0.4 µM), for which the “cleaved PARP positive nuclei fraction” value worked out at 20.4%. For `Cn1cnc2c(F)c(Nc3ccc(Br)cc3Cl)c(C(=O)NOCCO)cc21` [selumetinib] + O=C(Nc1cccc(Cl)c1)Nc1ncc(CCNc2ncnc3ccsc23)s1 [SNS314] (first compound 0.015 µM, partner dose 0.0008 µM), the “cleaved PARP positive nuclei fraction” value turned out to be 129%.
